PubChem BioAssay AID1259308 – NCATS – 2017
The deposit covers about 59,000 reagents; this is a part drawn at random. Over the whole deposit, about 1,510 (2.6%) were called active. 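Calls use total luciferase alone and ignore viability, so some active siRNAs may act by altering cell number.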 Reagents against one gene are numbered here. Further read-outs or replicates are left out here.

Aim: 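Genes whose loss raises luciferase production in HEK293 cells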 (primary screen)
Cells: human HEK293 embryonic kidney cells stably expressing firefly luciferase (HEK-CMV-Luc2-Hygro)
Knock-down reagent: single siRNA against human genes, 0.8 pmol siRNA per well
Time to read-out: 72 h
Measured: 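Luciferase light (ONE-Glo) measured on one replicate plate set and viability (CellTiter-Glo) on the other, scaled to a negative control siRNA, with robust z-scores and luciferase per cell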
Direction: total luciferase, z-score and total luciferase, % of control: higher = more reporter protein produced
Hit rule: 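An siRNA counts as active if its total luciferase robust z-score exceeds 3; genes with two or more such siRNAs out of three were retested with fresh siRNAs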
Calls: active = raised luciferase; inactive = no rise

Depletion of HBM (hemoglobin subunit mu) #1 gave: total luciferase, z-score -0.321; total luciferase, % of control 75.5; inactive. HBM (hemoglobin subunit mu) #2 scored total luciferase, z-score -0.649; total luciferase, % of control 69; inactive. Silencing of HBM (hemoglobin subunit mu) #3 resulted in: total luciferase, z-score 0.179; total luciferase, % of control 85.4; inactive. Against NDUFS5 (NADH:ubiquinone oxidoreductase subunit S5) #1, the entry reads total luciferase, z-score 0.387; total luciferase, % of control 89.6; inactive. NDUFS5 (NADH:ubiquinone oxidoreductase subunit S5) #2 showed total luciferase, z-score -0.0854; total luciferase, % of control 80.2; inactive. For NDUFS5 (NADH:ubiquinone oxidoreductase subunit S5) #3 the deposit lists total luciferase, z-score 0.862; total luciferase, % of control 99; inactive.

Targets listed so far whose gene name begins with H or h:
HBM (hemoglobin subunit mu) #1 | total luciferase, z-score = -0.321; total luciferase, % of control = 75.5; Outcome = inactive
HBM (hemoglobin subunit mu) #2 | total luciferase, z-score = -0.649; total luciferase, % of control = 69; Outcome = inactive
HBM (hemoglobin subunit mu) #3 | total luciferase, z-score = 0.179; total luciferase, % of control = 85.4; Outcome = inactive

Next reagents follow:
After knock-down of ZNF599 (zinc finger protein 599) #1 the results were total luciferase, z-score 0.495; total luciferase, % of control 91.7; inactive. After knock-down of ZNF599 (zinc finger protein 599) #2, the record shows total luciferase, z-score 0.65; total luciferase, % of control 94.8; inactive. ZNF599 (zinc finger protein 599) #3 showed total luciferase, z-score -0.96; total luciferase, % of control 62.8; inactive. Silencing of PCDHA4 (protocadherin alpha 4) #1 resulted in: total luciferase, z-score -0.134; total luciferase, % of control 79.2; inactive. PCDHA4 (protocadherin alpha 4) #2 gave total luciferase, z-score 0.013; total luciferase, % of control 82.1; inactive. For PCDHA4 (protocadherin alpha 4) #3 the deposit lists total luciferase, z-score -0.349; total luciferase, % of control 74.9; inactive.
